## Cleaved PARP in drug-treated melanoma cells

Source: doi:10.1371/journal.pone.0140310, primary screening data, rounded.

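Human melanoma cell lines in 1,536-well plates were treated with a pair of drugs for 72 h, then fixed, stained and imaged. Values are the share of nuclei positive for cleaved PARP as a percentage of the same share in the DMSO control: 100 is the control level, higher means more apoptosis. Concentrations were fixed for each drug; these are the higher of two levels. The file gives one value for each pair and line, without errors, so small differences may be noise. The marker varies much from line to line, for technical or biological reasons.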 An unselected part of the screen is shown. An entry leaves out what has no value listed here. A dash means that no value is listed here.

Compounds and concentrations:
GW2580, 5 µM: COc1ccc(COc2ccc(Cc3cnc(N)nc3N)cc2OC)cc1
SNS-314, 0.004 µM: O=C(Nc1cccc(Cl)c1)Nc1ncc(CCNc2ncnc3ccsc23)s1
ZM336372, 10 µM: Cc1ccc(NC(=O)c2cccc(N(C)C)c2)cc1NC(=O)c1ccc(O)cc1
dovitinib, 0.5 µM: CN1CCN(c2ccc3nc(-c4c(N)c5c(F)cccc5[nH]c4=O)[nH]c3c2)CC1
KU-55933, 5 µM: O=c1cc(-c2cccc3c2Sc2ccccc2S3)oc(N2CCOCC2)c1
PD173074, 0.5 µM: CCN(CC)CCCCNc1ncc2cc(-c3cc(OC)cc(OC)c3)c(NC(=O)NC(C)(C)C)nc2n1
vismodegib, 5 µM: CS(=O)(=O)c1ccc(C(=O)Nc2ccc(Cl)c(-c3ccccn3)c2)c(Cl)c1
KU-0063794, 0.1 µM: COc1ccc(-c2ccc3c(N4CCOCC4)nc(N4C[C@@H](C)O[C@@H](C)C4)nc3n2)cc1CO
pazopanib, 2 µM: Cc1ccc(Nc2nccc(N(C)c3ccc4c(C)n(C)nc4c3)n2)cc1S(N)(=O)=O
sunitinib, 2 µM: CCN(CC)CCNC(=O)c1c(C)[nH]c(/C=C2\C(=O)Nc3ccc(F)cc32)c1C

| Combination | LB2518-MEL | A375 | WM1716 | G-361 | A101D | MZ2-MEL | MeWo | WM451Lu |
|---|---|---|---|---|---|---|---|---|
| SNS-314 + sunitinib | 201 | - | 110 | 203 | 138 | 83.0 | 216 | 129 |
| KU-55933 + KU-0063794 | 174 | 47.7 | 206 | 21.6 | 95.3 | 61.0 | 86.3 | 286 |
| GW2580 + PD173074 | 90.8 | 15.4 | 40.4 | 92.5 | 174 | 39.7 | 52.7 | 111 |
| dovitinib + SNS-314 | 156 | - | 60.1 | 306 | 131 | 115 | 270 | 134 |
| KU-0063794 + PD173074 | 45.6 | 40.7 | 109 | 92.4 | 224 | 212 | 82.4 | 84.0 |
| vismodegib + PD173074 | 61.0 | 36.8 | 21.3 | 78.6 | 53.9 | 59.9 | 64.6 | 35.5 |
| GW2580 + sunitinib | 774 | 64.4 | 130 | 375 | 53.6 | 132 | 236 | 1060 |
| KU-0063794 + GW2580 | 115 | 17.2 | 88.6 | 70.8 | 50.5 | 99.8 | 50.0 | 98.5 |
| KU-0063794 + SNS-314 | 165 | 41.2 | 142 | 82.1 | 449 | 166 | 104 | 163 |
| SNS-314 + ZM336372 | 72.1 | - | 497 | 95.5 | 45.2 | 278 | 29.4 | 134 |
| GW2580 + KU-55933 | 93.5 | 168 | 58.6 | 46.3 | 53.5 | 77.4 | 108 | 151 |
| GW2580 + dovitinib | 95.8 | 71.5 | 77.5 | 392 | 235 | 182 | 201 | 152 |
| GW2580 + pazopanib | 178 | 175 | 125 | 134 | 46.8 | 88.8 | 87.6 | 190 |
| pazopanib + PD173074 | 196 | 56.5 | 33.6 | 171 | 149 | 35.9 | 29.0 | 213 |
| KU-0063794 + ZM336372 | 180 | 51.5 | 95.3 | 43.5 | 26.4 | 136 | 83.5 | 60.0 |
| pazopanib + sunitinib | 185 | 62.0 | 101 | 179 | 100 | 116 | 90.4 | 119 |
| ZM336372 + GW2580 | 47.7 | 107 | 64.8 | 118 | 42.4 | 171 | 70.1 | 51.4 |
| sunitinib + PD173074 | 172 | 185 | 145 | 121 | 167 | 106 | 366 | 413 |
| SNS-314 + KU-55933 | 66.7 | 54.5 | 102 | 105 | 156 | 43.3 | 44.5 | 276 |
| vismodegib + GW2580 | 88.5 | 20.5 | 74.7 | 94.0 | 123 | 82.1 | 93.2 | 45.9 |
| SNS-314 + vismodegib | 52.2 | - | 86.9 | 308 | 137 | 306 | 119 | 78.0 |
| dovitinib + PD173074 | 182 | 207 | 75.2 | 248 | 307 | 73.1 | 306 | 104 |
| vismodegib + dovitinib | 222 | 63.5 | 186 | 223 | 87.7 | 254 | 238 | 136 |
| vismodegib + ZM336372 | 253 | - | 66.5 | 63.9 | 158 | 64.9 | 92.6 | 67.7 |
| KU-0063794 + sunitinib | 150 | 81.0 | 20.9 | 220 | 54.6 | 104 | 91.9 | 1160 |
| KU-0063794 + pazopanib | 179 | 82.8 | 33.0 | 168 | 162 | 187 | 99.3 | 55.7 |
| GW2580 + SNS-314 | 145 | 71.5 | 176 | 60.2 | 49.2 | 20.1 | 166 | 371 |
| PD173074 + SNS-314 | 78.3 | 83.6 | 199 | 184 | 117 | 181 | 110 | 116 |
| pazopanib + ZM336372 | 117 | - | 80.7 | 91.5 | 124 | 177 | 45.1 | 40.4 |
| PD173074 + KU-55933 | 59.6 | 115 | 57.8 | 96.9 | 206 | 73.6 | 73.5 | 37.9 |
| sunitinib + ZM336372 | 128 | - | 45.8 | 204 | 300 | 121 | 253 | 187 |
| KU-55933 + pazopanib | 145 | 78.8 | 155 | 195 | 273 | 60.2 | 53.8 | 64.8 |
| dovitinib + KU-55933 | 164 | 222 | 197 | 698 | 277 | 111 | 274 | 61.3 |
| KU-55933 + sunitinib | 232 | 125 | 69.9 | 82.8 | 247 | 125 | 127 | 442 |
| ZM336372 + dovitinib | 544 | - | 173 | 627 | 159 | 348 | 332 | 99.5 |
| KU-0063794 + vismodegib | 79.6 | 80.3 | 129 | 86.9 | 111 | 79.3 | 94.2 | 43.3 |

Repeated from the top, 5 entries:

- SNS-314 + sunitinib : LB2518-MEL: 201; WM1716: 110; G-361: 203; A101D: 138; MZ2-MEL: 83.0; MeWo: 216; WM451Lu: 129
- KU-55933 + KU-0063794 : LB2518-MEL: 174; A375: 47.7; WM1716: 206; G-361: 21.6; A101D: 95.3; MZ2-MEL: 61.0; MeWo: 86.3; WM451Lu: 286
- GW2580 + PD173074 : LB2518-MEL: 90.8; A375: 15.4; WM1716: 40.4; G-361: 92.5; A101D: 174; MZ2-MEL: 39.7; MeWo: 52.7; WM451Lu: 111
- dovitinib + SNS-314 : LB2518-MEL: 156; WM1716: 60.1; G-361: 306; A101D: 131; MZ2-MEL: 115; MeWo: 270; WM451Lu: 134
- KU-0063794 + PD173074 : LB2518-MEL: 45.6; A375: 40.7; WM1716: 109; G-361: 92.4; A101D: 224; MZ2-MEL: 212; MeWo: 82.4; WM451Lu: 84.0